Our source for the binding values is doi:10.1101/2025.05.16.654402.

Residue numbers refer to the chain shown, from its start. Numbers in names are those of the source. Results are given in words; binding and its absence hold for the method and conditions named. In cells and extracts the contact can be indirect. Some results given as binding are weak or reduced against the parent protein; the word gives no strength.

T1: CCN1-HuFc (mouse CCN1 without stop codon in pCAG-HuFc) (mouse) (UniProt P18406)
T1 sequence: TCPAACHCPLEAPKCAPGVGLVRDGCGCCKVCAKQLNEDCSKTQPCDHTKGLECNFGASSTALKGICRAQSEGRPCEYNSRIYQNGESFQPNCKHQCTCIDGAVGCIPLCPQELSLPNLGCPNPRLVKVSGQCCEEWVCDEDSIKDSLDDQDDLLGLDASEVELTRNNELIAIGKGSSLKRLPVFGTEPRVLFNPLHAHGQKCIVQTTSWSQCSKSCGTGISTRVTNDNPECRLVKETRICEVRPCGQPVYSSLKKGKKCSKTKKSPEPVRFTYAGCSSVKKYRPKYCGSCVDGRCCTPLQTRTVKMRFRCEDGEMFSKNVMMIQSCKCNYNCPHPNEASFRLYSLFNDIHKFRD

B1: GPC1-CHA (protein, UniProt Q9QZF2 24-529)
chain: DPASKSRSCSEVRQIYGAKGFSLSDVPQAEISGEHLRICPQGYTCCTSEMEENLANHSRMELESALHDSSRALQATLATQLHGIDDHFQRLLNDSERTLQEAFPGAFGDLYTQNTRAFRDLYAELRLYYRGANLHLEETLAEFWARLLERLFKQLHPQLLPDDYLDCLGKQAEALRPFGDAPRELRLRATRAFVAARSFVQGLGVASDVVRKVAQVPLAPECSRAIMKLVYCAHCRGVPGARPCPDYCRNVLKGCLANQADLDAEWRNLLDSMVLITDKFWGPSGAESVIGGVHVWLAEAINALQDNKDTLTAKVIQACGNPKVNPHGSGPEEKRRRGKLALQEKPSTGTLEKLVSEAKAQLRDIQDFWISLPGTLCSEKMAMSPASDDRCWNGISKGRYLPEVMGDGLANQINNPEVEVDITKPDMTIRQQIMQLKIMTNRLRGAYGGNDVDFQDASDDGSGSGSGGGCPDDTCGRRVSKKSSSSRTPLTHALPGLSEQEGQKTS
B2: GPC2-CHA (protein, UniProt Q8BKV1 22-556)
chain: HGSEAKVVRSCAETRQVLGARGYSLNLIPPSLISGEHLQVCPQEYTCCSSETEQKLIRDAEVTFRGLVEDSGSFLIHTLAARHRKFNEFFREMLSISQHSLAQLFSHSYGRLYSQHAVIFNSLFSGLRDYYEKSGEGLDDTLADFWAQLLERAFPLLHPQYSFPPDFLLCLTRLTSTADGSLQPFGDSPRRLRLQISRALVAARALVQGLETGRNVVSEALKVPVLEGCRQALMRLIGCPLCRGVPSLMPCRGFCLNVAHGCLSSRGLEPEWGGYLDGLLLLAEKLQGPFSFELAAESIGVKISEGLMHLQENSVKVSAKVFQECGTPHPVQSRSRRAPAPREEASRSWRASAEEERPTTAAGTNLHRLVWELRERLSRVRGFWAGLPVTVCGDSRMAADLSQETAPCWTGVGRGRYMSPVVVGSLNEQLHNPELDTSSPDVPTRRRRLHLRAATARMKAAALGQDLDMHDADEDASGSGGGQQYADDWKAGAVPVVPPARPPRPPRPPRRDGLGVRGGSGSARYNQGRSRNLGS
B3: GPC4 core-CHA protein (aa. 1-485) (domain or fragment, UniProt P51655 19-485)
chain: SLLAAELKSKSCSEVRRLYVSKGFNKNDAPLYEINGDHLKICPQDYTCCSQEMEEKYSLQSKDDFKTVVSEQCNHLQAIFASRYKKFDEFFKELLENAEKSLNDMFVKTYGHLYMQNSELFKDLFVELKRYYVAGNVNLEEMLNDFWARLLERMFRLVNSQYHFTDEYLECVSKYTEQLKPFGDVPRKLKLQVTRAFVAARTFAQGLAVARDVVSKVSVVNPTAQCTHALLKMIYCSHCRGLVTVKPCYNYCSNIMRGCLANQGDLDFEWNNFIDAMLMVAERLEGPFNIESVMDPIDVKISDAIMNMQDNSVQVSQKVFQGCGPPKPLPAGRISRSISESAFSARFRPYHPEQRPTTAAGTSLDRLVTDVKEKLKQAKKFWSSLPSTVCNDERMAAGNENEDDCWNGKGKSRYLFAVTGNGLANQGNNPEVQVDTSKPDILILRQIMALRVMTSKMKNAYNGNDVD
B4: GPC6-CHA (protein, UniProt Q9R087 24-530)
chain: DVKARSCSEVRQAYGAKGFSLADIPYQEIAGEHLRICPQEYTCCTTEMEDKLSQQSKLEFENLVEETSHFVRTTFVSRHKKFDEFFRELLENAEKSLNDMFVRTYGMLYMQNSEVFQDLFTELKRYYTGGNVNLEEMLNDFWARLLERMFQLINPQYHFSEDYLECVSKYTDQLKPFGDVPRKLKIQVTRAFIAARTFVQGLTVGREVANRVSKVSPTPGCIRALMKMLYCPYCRGLPTVRPCNNYCLNVMKGCLANQADLDTEWNLFIDAMLLVAERLEGPFNIESVMDPIDVKISEAIMNMQENSMQVSAKVFQGCGQPKPAPALRSARSAPENFNTRFRPYNPEERPTTAAGTSLDRLVTDIKEKLKLSKKVWSALPYTICKDERVTAGTSNEEECWNGHSKARYLPEIMNDGLTNQINNPEVEVDITRPDTFIRQQIMALRVMTNKLKNAYNGNDVNFQDTSDESSGSGSGSGCMDDVCPTEFEFVTTEAPAVDPDRREEESS
B5: GPC4-CHA (protein, UniProt P51655 19-529)
chain: SLLAAELKSKSCSEVRRLYVSKGFNKNDAPLYEINGDHLKICPQDYTCCSQEMEEKYSLQSKDDFKTVVSEQCNHLQAIFASRYKKFDEFFKELLENAEKSLNDMFVKTYGHLYMQNSELFKDLFVELKRYYVAGNVNLEEMLNDFWARLLERMFRLVNSQYHFTDEYLECVSKYTEQLKPFGDVPRKLKLQVTRAFVAARTFAQGLAVARDVVSKVSVVNPTAQCTHALLKMIYCSHCRGLVTVKPCYNYCSNIMRGCLANQGDLDFEWNNFIDAMLMVAERLEGPFNIESVMDPIDVKISDAIMNMQDNSVQVSQKVFQGCGPPKPLPAGRISRSISESAFSARFRPYHPEQRPTTAAGTSLDRLVTDVKEKLKQAKKFWSSLPSTVCNDERMAAGNENEDDCWNGKGKSRYLFAVTGNGLANQGNNPEVQVDTSKPDILILRQIMALRVMTSKMKNAYNGNDVDFFDISDESSGEGSGSGCEYQQCPSEFEYNATDHSGKSANEKADS
B6: GPC4 δHS-CHA (S494A, S498A, S500A) mutant protein (protein, UniProt P51655 19-529)
chain: B5 chain with S476A, S480A, S482A
B7: Midkine-CHA (protein, UniProt P12025 23-140)
chain: KKKEKVKKGSECSEWTWGPCTPSSKDCGMGFREGTCGAQTQRVHCKVPCNWKKEFGADCKYKFESWGACDGSTGTKARQGTLKKARYNAQCQETIRVTKPCTSKTKSKTKAKKGKGKD

In this assay the target is T1, CCN1-HuFc (mouse CCN1 without stop codon in pCAG-HuFc) (mouse). Description: co-IP.
B1: the binding entry is listed as “binds weakly”.

Consider B2, for which the binding result was “binds weakly”.

For B3, the binding result is listed as “binds”.

Consider B4, for which the binding entry was “binds weakly”.

For B5, the binding result is “binds”.

Regarding B6, the binding result is reported as “binds”.

For the molecule B7, the binding entry was “binds”.
